Values after ≈ are worked out from the molar mass of the structure shown.
Test system: Mycobacterium tuberculosis H37 Rv
Assay: minimal inhibitory concentration in vitro against Mycobacterium tuberculosis H37 Rv
Format: cell-based
Conditions: H37RV
Description: For instance, the value of the minimal inhibitory concentration in vitro of the "cyclopentyl derivative" against Mycobacterium tuberculosis H37 Rv is 0.05 μg/ml, while that of rifampicin is 0.5 μg/ml.

For `CO[C@H]1/C=C/O[C@@]2(C)Oc3c(C)c(O)c4c(O)c(c(/C=N/N5CCN(C)CC5)c(O)c4c3C2=O)NC(=O)/C(C)=C\C=C\[C@H](C)[C@H](O)[C@@H](C)[C@@H](O)[C@@H](C)[C@H](OC(C)=O)[C@@H]1C` [rifampicin], the MIC was 0.5 µg/mL (≈ 0.608 µM).
